Measured values: the supplement of paper PMC6690932
Values joined by “and” are separate entries in the source; they are usually repeats but may differ in a detail not shown here. Equal entries are not always repeated. Structures can show the parent of a compound that is named as a salt. This is one part of the list. Single values are uncertain, as repeats are few or missing.

What follows are molecules tested on HeLa (assay: lysosomal-METRIQ red/green fluorescence ratio relative to DMSO (ratio to DMSO); higher = higher lysosomal activity / lysosomal biogenesis). Conditions: 10 µM; 12 h.

Row | Compound | lysosomal-METRIQ red/green fluorescence ratio
1 | Cc1cccc(-c2nn(C(=S)Nc3ccccc3)cc2-c2ccnc3ccccc23)n1 | 0.955
2 | NS(=O)(=O)c1ccc(Nc2nc(OCC3CCCCC3)c3[nH]cnc3n2)cc1 | 0.955
3 | CC(=O)N[C@@H](CS)C(=O)O [N-Acetyl-L-cysteine] | 1.07
4 | C/C=C/C/C=C/CCC(=O)[C@H]1O[C@H]1C(N)=O [Cerulenin] | 1.17
5 | N#CC[C@H](C1CCCC1)n1cc(-c2ncnc3[nH]ccc23)cn1 [Ruxolitinib] | 1.95
6 | CC(C)(C)c1nc2c3cc[nH]c(=O)c3c3cc(F)ccc3c2[nH]1 [JAK Inhibitor I] | 1.31
7 | COc1cccc2c1C(=O)c1c(O)c3c(c(O)c1C2=O)C[C@@](O)(C(=O)CO)C[C@@H]3O[C@H]1C[C@H](N)[C@H](O)[C@H](C)O1 [Doxorubicin, HCl] | 1.03
8 | C[C@@H]1C[C@H]2[C@@H]3CCC4=CC(=O)C=C[C@]4(C)[C@@]3(F)[C@@H](O)C[C@]2(C)[C@@]1(O)C(=O)CO [Dexamethasone] | 1.1
9 | NC(=O)c1ccc(-c2nc(-c3ccccn3)c(-c3ccc4c(c3)OCO4)[nH]2)cc1 | 1 and 1.06
10 | O=C(Nc1ccc([N+](=O)[O-])cc1O)Nc1ccccc1Br | 1
11 | Cn1c(=O)c2nc[nH]c2n(C)c1=O [Theophylline] | 1.05
12 | NC1=N/C(=C2/CCNC(=O)c3[nH]ccc32)C(=O)N1 [Debromohymenialdisine (DBH)] | 1.09
13 | O=C(CCCCCCC(=O)Nc1ccccc1)NO [vorinostat] | 0.455
14 | CC(C)CC(NC(=O)CNC(=O)OCc1ccccc1)C(=O)NC(Cc1ccccc1)C(=O)CCl (stereo not drawn) | 1.08
15 | CC(C)C[C@@H](N)[C@H](O)C(=O)N[C@H](C(=O)N[C@H](C(=O)N[C@@H](CC(=O)O)C(=O)O)C(C)C)C(C)C [Amastatin] | 0.96
16 | C[C@@H]1C[C@H]2O[C@@H]2/C=C\C=C\C(=O)Cc2c(Cl)c(O)cc(O)c2C(=O)O1 [Radicicol] | 0.867
17 | CO[C@@]12[C@H](COC(N)=O)C3=C(C(=O)C(C)=C(N)C3=O)N1C[C@@H]1N[C@@H]12 [Mitomycin C] | 1.03
18 | NC(=O)c1ccc(I)c([N+](=O)[O-])c1 [BSI-201 (Iniparib)] | 1
19 | COc1ccc(COc2ccc(Cc3cnc(N)nc3N)cc2OC)cc1 [cFMS Receptor Tyrosine Kinase Inhibitor] | 0.875
20 | CC(C)(C)c1cc(O)ccc1O [t-Butylhydroquinone (BHQ)] | 1.16
21 | C[C@H](NC(=O)/C(C#N)=C/c1cccc(Br)n1)c1ccccc1 | 0.955
22 | CCCC[C@@H](C)/C=C(C)/C=C(\C)C(=O)NC1=C[C@@](O)(/C=C/C=C/C=C/C(=O)NC2=C(O)CCC2=O)[C@@H]2O[C@@H]2C1=O [Manumycin A] | 1
23 | O=c1cc(-c2ccccc2)oc2cc(O)c(O)c(O)c12 [Baicalein] | 1.09

For convenience, part of the list above.
Row | Compound | lysosomal-METRIQ red/green fluorescence ratio
13 | O=C(CCCCCCC(=O)Nc1ccccc1)NO [vorinostat] | 0.455
14 | CC(C)CC(NC(=O)CNC(=O)OCc1ccccc1)C(=O)NC(Cc1ccccc1)C(=O)CCl (stereo not drawn) | 1.08
